Results are given in words; binding and its absence hold for the method and conditions named. In cells and extracts the contact can be indirect. Some binding calls cover weakened binding; strength is not graded here.
Legend:
[1] = molecular target: GFP-KAP1 (Krüppel-associated box domain-associated protein 1), wild type, expressed in HEK293 cells (human) (UniProt Q13263); experiment: co-IP; GFP-KAP1 immunoprecipitated from transfected HEK293 cells; cells treated with 5 μM etoposide for 4 h with or without 20 μM KU55933 (ATMi) or 50 nM AZD7762; partners checked on western blot
[2] = molecular target: GST-HP1β (heterochromatin protein 1β) (UniProt P83916); experiment: pull-down; recombinant GST-HP1β as bait; cell extracts from U2OS cells expressing GFP-KAP1 versions; only the target purified

Amino acid sequences for entries named in this document (tags omitted).
UniProt Q13263: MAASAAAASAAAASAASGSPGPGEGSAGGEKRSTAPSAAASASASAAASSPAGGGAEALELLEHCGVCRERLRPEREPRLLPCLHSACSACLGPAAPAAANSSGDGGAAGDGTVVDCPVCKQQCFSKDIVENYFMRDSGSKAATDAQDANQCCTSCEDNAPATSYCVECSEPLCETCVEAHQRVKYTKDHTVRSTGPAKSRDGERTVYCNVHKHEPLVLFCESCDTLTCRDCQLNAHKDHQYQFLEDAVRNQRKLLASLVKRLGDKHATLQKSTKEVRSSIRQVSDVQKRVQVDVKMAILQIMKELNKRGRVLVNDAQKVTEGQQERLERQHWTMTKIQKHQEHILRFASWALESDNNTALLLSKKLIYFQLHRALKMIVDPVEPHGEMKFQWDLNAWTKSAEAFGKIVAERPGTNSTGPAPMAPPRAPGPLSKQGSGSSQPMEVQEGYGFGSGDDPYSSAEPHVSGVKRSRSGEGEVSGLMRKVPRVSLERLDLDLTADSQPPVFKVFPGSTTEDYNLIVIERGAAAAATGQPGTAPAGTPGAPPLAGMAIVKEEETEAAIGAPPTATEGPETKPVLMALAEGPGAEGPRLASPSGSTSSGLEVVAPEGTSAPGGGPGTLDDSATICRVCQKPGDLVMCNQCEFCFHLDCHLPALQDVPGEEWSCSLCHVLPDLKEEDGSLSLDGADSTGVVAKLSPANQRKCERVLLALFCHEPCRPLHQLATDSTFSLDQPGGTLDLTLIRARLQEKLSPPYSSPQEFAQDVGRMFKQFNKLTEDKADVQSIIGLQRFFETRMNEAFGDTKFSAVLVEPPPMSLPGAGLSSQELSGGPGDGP
UniProt P83916: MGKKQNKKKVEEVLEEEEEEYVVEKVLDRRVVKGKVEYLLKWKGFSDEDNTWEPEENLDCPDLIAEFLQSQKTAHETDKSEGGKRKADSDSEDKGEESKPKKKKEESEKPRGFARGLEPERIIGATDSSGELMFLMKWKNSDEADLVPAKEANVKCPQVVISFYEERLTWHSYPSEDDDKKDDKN
UniProt Q13547: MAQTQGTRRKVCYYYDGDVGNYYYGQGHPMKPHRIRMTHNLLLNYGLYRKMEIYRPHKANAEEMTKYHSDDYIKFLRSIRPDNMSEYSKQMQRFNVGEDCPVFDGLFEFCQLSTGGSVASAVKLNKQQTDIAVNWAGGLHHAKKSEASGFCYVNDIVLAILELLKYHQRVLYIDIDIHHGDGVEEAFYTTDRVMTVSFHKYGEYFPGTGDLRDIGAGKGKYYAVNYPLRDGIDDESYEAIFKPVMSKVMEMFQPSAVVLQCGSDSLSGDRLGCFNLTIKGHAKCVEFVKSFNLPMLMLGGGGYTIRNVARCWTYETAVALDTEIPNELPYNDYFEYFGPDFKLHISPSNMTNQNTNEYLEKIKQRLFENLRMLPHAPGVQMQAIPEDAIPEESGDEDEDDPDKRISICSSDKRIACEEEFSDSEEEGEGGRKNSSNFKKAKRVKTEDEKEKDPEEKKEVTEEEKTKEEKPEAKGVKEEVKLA
UniProt Q00987: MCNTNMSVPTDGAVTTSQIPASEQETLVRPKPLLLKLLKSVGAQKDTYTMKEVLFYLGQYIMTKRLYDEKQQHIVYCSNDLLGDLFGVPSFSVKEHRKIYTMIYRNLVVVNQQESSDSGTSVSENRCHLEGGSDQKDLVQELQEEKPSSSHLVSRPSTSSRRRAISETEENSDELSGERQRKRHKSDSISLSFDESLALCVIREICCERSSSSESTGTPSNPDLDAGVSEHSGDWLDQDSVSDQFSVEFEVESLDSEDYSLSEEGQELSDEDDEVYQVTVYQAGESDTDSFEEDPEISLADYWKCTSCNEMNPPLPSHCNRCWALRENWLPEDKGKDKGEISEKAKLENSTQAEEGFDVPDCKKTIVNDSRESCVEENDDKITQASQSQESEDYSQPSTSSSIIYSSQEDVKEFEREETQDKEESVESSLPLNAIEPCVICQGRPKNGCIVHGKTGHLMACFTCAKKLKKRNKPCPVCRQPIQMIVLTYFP

Row | binding [1] | binding [2] | Substance
1 | binds | – | HDAC1 (from UniProt Q13547 1-482)
2 | binds | – | MDM2 (from UniProt Q00987 1-491)
3 | – | binds | GFP-KAP1 wild type, stably expressed in U2OS cells (from UniProt Q13263 1-835)
